Source: PubChem BioAssay AID652272 (Drosophila RNAi Screening Center, 2013)
Aim: 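Finding fly genes that regulate Hedgehog signal transduction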 (primary screen). System: Drosophila clone 8 (Cl8) cells. Reagents: long dsRNA against Drosophila genes. Detection: 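Plate reader light from a firefly reporter under a ptc promoter fragment that responds to Hedgehog, with Renilla light as transfection reference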. Scale: firefly Hh reporter signal: higher = more ptc reporter light; Renilla reference signal: higher = more Renilla control light. Rule for the call: 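Hit when the z-score averaged over two replicates is under -2 or over +3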. Calls: active = hit: reporter lowered or raised; inactive = not a hit.
The screen tested about 21,000 reagents; below is an unselected part of those that have a named target and a result. Of all reagents, 503 (2.4%) got an active call. 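Raw plate light values, not normalised; calls rest on replicate z-scores that were not deposited; hits include reporter decreases as well as increases.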 Reagents against one gene are numbered here. Names joined by + are all predicted targets of the reagent. Not stated in the record: the amount of reagent, the time to read-out.

Target gene | dsRNA no. | firefly Hh reporter signal, replicate 1 | firefly Hh reporter signal, replicate 2 | firefly Hh reporter signal, replicate 3 | Renilla reference signal, replicate 1 | Renilla reference signal, replicate 2 | Outcome
CG2082 | 1 | 1.78e5 | 1.00e5 | – | 5847 | 3708 | inactive
CG17618 (retired record) + CG45049 | 1 | 7.37e5 | 1.31e5 | – | 34580 | 3860 | inactive
ghi | 1 | 1.76e5 | 4.15e5 | – | 4594 | 16100 | inactive
bab1 | 1 | 1.32e5 | 3.58e5 | 74981 | 4147 | 23620 | inactive
bab1 | 2 | 1.27e5 | 44968 | – | 4843 | 3797 | inactive
Med | 1 | 80243 | 54576 | – | 3025 | 3076 | inactive
Kr-h2 | 1 | 1.24e5 | 44513 | – | 3287 | 4769 | inactive
CG11722 | 1 | 1.40e5 | 1.13e5 | – | 4390 | 3340 | inactive
CG15412 | 1 | 70662 | 30758 | – | 2128 | 3703 | inactive
CG12056 | 1 | 89936 | 71760 | – | 1881 | 1731 | inactive
Or2a | 1 | 74832 | 1.99e5 | – | 1450 | 7842 | inactive
CG18744 | 1 | 78437 | 1.08e5 | – | 3520 | 3245 | inactive
Ric | 1 | 85642 | 61120 | – | 2419 | 4540 | inactive
CG14020 | 1 | 71697 | 67008 | – | 1200 | 6908 | inactive
Piezo | 1 | 87437 | 63634 | – | 3490 | 2764 | inactive
Piezo | 2 | 77916 | 51351 | – | 2385 | 4112 | inactive
Sc2 | 1 | 99948 | 72752 | – | 4084 | 2892 | inactive
tok | 1 | 87120 | 80216 | – | 2905 | 2980 | inactive
Cnep1r2 | 1 | 1.06e5 | 1.08e5 | – | 4796 | 4066 | inactive
Polr3I | 1 | 76016 | 81568 | – | 1948 | 2320 | inactive
Acyp | 1 | 1.29e5 | 60932 | – | 3526 | 6176 | inactive
CG9500 | 1 | 1.21e5 | 33299 | – | 2784 | 2944 | inactive
CecB | 1 | 1.23e5 | 1.20e5 | – | 2562 | 3785 | inactive
AP-1sigma | 1 | 1.52e5 | 1.07e5 | – | 5794 | 3957 | inactive
CG33060 | 1 | 88668 | – | – | 6000 | 2791 | inactive
dpr19 | 1 | 1.22e5 | 72167 | – | 3115 | 6289 | inactive
CaMKII | 1 | 1.06e5 | 98360 | – | 2489 | 2679 | inactive
CG43293 | 1 | 1.24e5 | 2.11e5 | – | 2912 | 7488 | inactive
l(3)05822 | 1 | 1.24e5 | 94672 | – | 5110 | 4045 | inactive
Zip71B | 1 | 80253 | – | – | 1280 | 2080 | inactive
CG13455 | 1 | 84342 | – | – | 3779 | 2171 | inactive
sra | 1 | 1.39e5 | 65312 | – | 5605 | 2546 | inactive
Nfs1 | 1 | 55488 | 51868 | – | 2688 | 2663 | inactive
CG5273 | 1 | 95083 | 1.81e5 | – | 3488 | 6583 | inactive
lncRNA:CR34046 | 1 | 4.32e5 | 2.17e5 | – | 21969 | 4649 | inactive
CG11369 | 1 | 1.09e5 | 2.75e5 | – | 3356 | 9568 | inactive
CG18335 | 1 | 65640 | 44401 | – | 1504 | 3088 | inactive
SamDC | 1 | 1.35e5 | 75729 | – | 5084 | 3226 | inactive
vir | 1 | 68571 | 53504 | – | 1473 | 4837 | inactive
CG15605 | 1 | 73997 | 38070 | – | 2048 | 3136 | inactive
Tk | 1 | 1.37e5 | 6.23e5 | 1.29e5 | 5253 | 3195 | inactive
CG9676 | 1 | 74027 | 1.27e5 | – | 3321 | 6913 | inactive
CG10799 | 1 | 73803 | 51125 | – | 2017 | 3506 | inactive
CG11980 | 1 | 81516 | 95897 | – | 3802 | 4077 | inactive
CG42319 | 1 | 1.11e5 | 65952 | – | 2688 | 5028 | inactive
CG42319 | 2 | 86485 | 47435 | – | 2285 | 3904 | inactive
CG31637 | 1 | 1.27e5 | 1.04e5 | – | 4773 | 3399 | inactive
CG31637 | 2 | 61760 | 18555 | – | 1812 | 2935 | inactive
side-VIII | 1 | 1.12e5 | 2.25e5 | – | 2905 | 9460 | inactive
side-VIII | 2 | 50080 | 78525 | – | 459 | 5144 | inactive
side-VIII | 3 | 99926 | 6.75e5 | 45529 | 2328 | 37256 | inactive
Rrp42 | 1 | 70052 | 56979 | – | 2133 | 4205 | inactive
achi | 1 | 79172 | 45224 | – | 2077 | 3776 | inactive
Alg10 | 1 | 41274 | 40072 | 53605 | 4604 | 3981 | inactive
TotC | 1 | 62219 | 2.18e5 | – | 12277 | 5849 | inactive
CG17267 | 1 | 5.43e5 | 85840 | – | 29125 | 6747 | inactive
Fic | 1 | 57116 | 1.53e5 | – | 2417 | 5814 | inactive

10 entries already listed, arranged by “Renilla reference signal, replicate 1”, lowest first.
Target gene | dsRNA no. | firefly Hh reporter signal, replicate 1 | firefly Hh reporter signal, replicate 2 | firefly Hh reporter signal, replicate 3 | Renilla reference signal, replicate 1 | Renilla reference signal, replicate 2 | Outcome
vir | 1 | 68571 | 53504 | – | 1473 | 4837 | inactive
CG18335 | 1 | 65640 | 44401 | – | 1504 | 3088 | inactive
CG10799 | 1 | 73803 | 51125 | – | 2017 | 3506 | inactive
CG15605 | 1 | 73997 | 38070 | – | 2048 | 3136 | inactive
CG9676 | 1 | 74027 | 1.27e5 | – | 3321 | 6913 | inactive
CG11369 | 1 | 1.09e5 | 2.75e5 | – | 3356 | 9568 | inactive
CG11980 | 1 | 81516 | 95897 | – | 3802 | 4077 | inactive
SamDC | 1 | 1.35e5 | 75729 | – | 5084 | 3226 | inactive
Tk | 1 | 1.37e5 | 6.23e5 | 1.29e5 | 5253 | 3195 | inactive
lncRNA:CR34046 | 1 | 4.32e5 | 2.17e5 | – | 21969 | 4649 | inactive
